Results on five sequences are retold here after publication PMC10711433, “The forkhead DNA-binding domain binds specific G2-rich RNA sequences”.

By UniProt entry, the sequences of proteins in these tests, tags left out. Where a name states a change or a piece, a line headed by the entry shows the natural chain unless it says otherwise.
UniProt O43524: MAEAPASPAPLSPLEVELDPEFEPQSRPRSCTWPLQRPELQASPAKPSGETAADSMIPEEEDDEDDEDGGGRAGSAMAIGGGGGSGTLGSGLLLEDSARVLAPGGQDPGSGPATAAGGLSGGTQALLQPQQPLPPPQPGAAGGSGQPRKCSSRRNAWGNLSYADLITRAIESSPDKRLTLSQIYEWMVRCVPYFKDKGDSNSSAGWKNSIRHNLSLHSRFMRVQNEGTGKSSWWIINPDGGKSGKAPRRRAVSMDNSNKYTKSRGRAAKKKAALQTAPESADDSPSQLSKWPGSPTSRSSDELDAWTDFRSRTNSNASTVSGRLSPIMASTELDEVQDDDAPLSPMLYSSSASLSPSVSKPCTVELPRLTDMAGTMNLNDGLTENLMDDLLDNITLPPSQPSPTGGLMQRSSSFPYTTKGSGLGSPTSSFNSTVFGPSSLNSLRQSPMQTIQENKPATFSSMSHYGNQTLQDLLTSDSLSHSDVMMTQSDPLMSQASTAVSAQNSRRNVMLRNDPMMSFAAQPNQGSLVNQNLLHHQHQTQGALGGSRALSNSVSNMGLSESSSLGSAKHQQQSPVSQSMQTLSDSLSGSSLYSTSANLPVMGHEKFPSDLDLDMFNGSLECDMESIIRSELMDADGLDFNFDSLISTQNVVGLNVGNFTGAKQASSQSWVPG

The exact form of at least one protein or probe is not confirmed. A weaker result is weaker than the reference pair of the same experiment. For some assays here: Protein sequences can lack the tags named with them. For some assays here: Where cells or extracts were used, other partners may take part. For some assays here: At least one verdict rests on a figure or table, not on a statement of the authors.

What all share (experiment): pull-down competition + HTS
Data set [1] has as its target T1, FOXA1 (UniProt P55317).
T1 sequence (looked up, limits assumed): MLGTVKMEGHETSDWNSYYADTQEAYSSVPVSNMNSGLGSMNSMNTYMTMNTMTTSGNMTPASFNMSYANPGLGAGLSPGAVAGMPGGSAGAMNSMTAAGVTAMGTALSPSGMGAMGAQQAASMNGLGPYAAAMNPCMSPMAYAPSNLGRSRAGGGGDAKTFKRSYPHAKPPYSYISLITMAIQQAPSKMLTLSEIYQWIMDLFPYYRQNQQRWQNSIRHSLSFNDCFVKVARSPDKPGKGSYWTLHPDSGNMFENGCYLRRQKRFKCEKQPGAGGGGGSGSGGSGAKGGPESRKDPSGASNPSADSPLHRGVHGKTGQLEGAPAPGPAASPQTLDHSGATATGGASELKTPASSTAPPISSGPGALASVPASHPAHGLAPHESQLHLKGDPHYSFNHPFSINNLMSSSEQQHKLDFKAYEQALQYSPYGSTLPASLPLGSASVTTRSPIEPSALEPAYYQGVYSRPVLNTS
To be noted: 10 mM HEPES (pH 7.5), 140 mM KCl, 25 mM NaCl, 1 mM MgCl2, 0.1 mM CaCl2, 0.001% IGEPAL, 100 nM yeast tRNA, 50 nM total aptamers, 37 C, 30 min; protein in a lysate after overexpression; protein details: V5.

Data set [2] concerns the target T2, FOXL2 wt (V5, HeLa) (UniProt P58012).
T2 sequence (looked up): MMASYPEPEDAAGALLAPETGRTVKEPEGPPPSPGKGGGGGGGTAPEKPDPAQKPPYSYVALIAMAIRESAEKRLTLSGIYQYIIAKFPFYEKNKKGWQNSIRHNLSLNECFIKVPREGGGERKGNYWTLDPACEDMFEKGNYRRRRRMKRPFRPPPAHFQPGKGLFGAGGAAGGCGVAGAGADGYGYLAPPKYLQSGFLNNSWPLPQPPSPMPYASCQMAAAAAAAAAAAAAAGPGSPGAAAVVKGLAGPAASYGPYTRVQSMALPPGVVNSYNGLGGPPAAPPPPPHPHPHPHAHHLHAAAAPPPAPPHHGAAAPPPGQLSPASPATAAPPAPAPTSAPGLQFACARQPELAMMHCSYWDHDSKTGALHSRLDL
The note with it: 10 mM HEPES (pH 7.5), 140 mM KCl, 25 mM NaCl, 1 mM MgCl2, 0.1 mM CaCl2, 0.001% IGEPAL, 100 nM yeast tRNA, 50 nM total aptamers, 37 C, 30 min; protein in a lysate after overexpression; residues 1-376; protein details: V5.

Data set [3] deals with FOXO3A (UniProt O43524). The note with it: 10 mM HEPES (pH 7.5), 140 mM KCl, 25 mM NaCl, 1 mM MgCl2, 0.1 mM CaCl2, 0.001% IGEPAL, 100 nM yeast tRNA, 50 nM total aptamers, 37 C, 30 min; protein in a lysate after overexpression; protein details: V5.
Data set [4] has as its target T3, FOXL2 FHD alone (UniProt P58012).
T3 sequence (looked up, limits assumed): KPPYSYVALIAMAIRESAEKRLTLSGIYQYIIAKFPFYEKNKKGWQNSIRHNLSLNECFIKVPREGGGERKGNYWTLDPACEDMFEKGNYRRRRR
The note with it: 10 mM HEPES (pH 7.5), 140 mM KCl, 25 mM NaCl, 1 mM MgCl2, 0.1 mM CaCl2, 0.001% IGEPAL, 100 nM yeast tRNA, 50 nM total aptamers, 37 C, 30 min; protein in a lysate after overexpression; protein details: V5.

The target in data set [5] is T4, FOXL2 without N-ter (UniProt P58012).
T4 sequence (looked up, limits assumed): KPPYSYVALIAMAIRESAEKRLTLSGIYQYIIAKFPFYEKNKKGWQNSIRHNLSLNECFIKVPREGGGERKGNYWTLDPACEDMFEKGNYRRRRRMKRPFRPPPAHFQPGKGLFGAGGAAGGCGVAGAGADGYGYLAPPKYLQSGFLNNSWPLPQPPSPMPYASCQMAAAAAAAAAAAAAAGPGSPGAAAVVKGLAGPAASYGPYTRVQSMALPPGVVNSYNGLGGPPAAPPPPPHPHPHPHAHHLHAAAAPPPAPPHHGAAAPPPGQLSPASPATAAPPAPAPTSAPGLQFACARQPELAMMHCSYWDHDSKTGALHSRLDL
To be noted: 10 mM HEPES (pH 7.5), 140 mM KCl, 25 mM NaCl, 1 mM MgCl2, 0.1 mM CaCl2, 0.001% IGEPAL, 100 nM yeast tRNA, 50 nM total aptamers, 37 C, 30 min; protein in a lysate after overexpression; protein details: V5.

Data set [6] concerns the target T5, FOXL2 without C-ter (UniProt P58012).
T5 sequence (looked up, limits assumed): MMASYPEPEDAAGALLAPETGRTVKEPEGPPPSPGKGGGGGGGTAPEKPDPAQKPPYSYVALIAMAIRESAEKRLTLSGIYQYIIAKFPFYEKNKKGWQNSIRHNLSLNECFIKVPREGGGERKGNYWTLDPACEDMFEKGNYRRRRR
To be noted: 10 mM HEPES (pH 7.5), 140 mM KCl, 25 mM NaCl, 1 mM MgCl2, 0.1 mM CaCl2, 0.001% IGEPAL, 100 nM yeast tRNA, 50 nM total aptamers, 37 C, 30 min; protein in a lysate after overexpression; protein details: V5.

The target in data set [7] is T6, FOXL2 wt (recombinant) (UniProt P58012).
T6 sequence (looked up): T2 sequence (looked up)
To be noted: 140 mM LiCl, no K+/Na+; 10 mM HEPES (pH 7.5), 140 mM KCl, 25 mM NaCl, 1 mM MgCl2, 0.1 mM CaCl2, 0.001% IGEPAL, 100 nM yeast tRNA, 50 nM total aptamers, 37 C, 30 min; recombinant protein; residues 1-376; protein details: His-SUMO tag cleaved.

“AUCUGCGACUGGCUGGAGGUGGACGGAUGGCUGGAGGCGAAAUUGGCUUA [RF004 RNA]”: the binding result in data set [1], in data set [2], in data set [3], in data set [4], in data set [5] and in data set [6] was “binds” in each case.

With “CGUCAUUUGGUGGAUGGCGGAAGGAGGCGGAGGACGGGAAAUUCUGGAAA [RF001 RNA]”, the binding result is recorded as “binds” in data set [1]; “binds” in data set [2]; “binds more weakly” in data set [7]; “binds” in data set [3]; “binds” in data set [4]; “binds” in data set [5]. Further, the binding result in data set [6] is reported as “binds”.

As for “GAGGUAUUAAGAGGCGGAGGCGGAAGGAUGGCGGAGGACCGACAGAGAAG [RF000 RNA]”, the binding result in data set [1] was “binds”; in data set [2] it was “binds”; in data set [7], “binds more weakly”; in data set [3] it was “binds”; in data set [4], “binds”; in data set [5] it was “binds”. Besides, in data set [6], the binding result was “binds”.

Take “GGGACACUCGCUGUUUUCGAAAUUACCCUUUAUGCGCGGGUAUUGAACCA [scr50 RNA]”: the binding result in data set [1], in data set [2], in data set [3], in data set [4], in data set [5] and in data set [6] was “binds more weakly” throughout.

For the sequence “UCGGACUUUGGUGGUUGGAGGACGGAUGGACGGAGGUUUAUUAGGCUCGC [RF002 RNA]”, the binding result in data set [1], in data set [2], in data set [3], in data set [4], in data set [5] and in data set [6] was “binds” throughout.
